Read-outs that look alike come from different tables or passages of the source. These are yes or no findings as the source states them, for the method shown. Binding seen in cells or lysates may run through a third protein. Some results given as binding are weak or reduced against the parent protein; the word gives no strength.
How the values were obtained:
Test in all cases: co-IP
FLAG-HDAC1 (human) [1] = molecular target: FLAG-HDAC1 (human) (UniProt Q13547)
FLAG-HDAC1 (human) [2] = molecular target: FLAG-HDAC1 (human) (UniProt Q13547); remark: listed apart in the source
RNF2-FLAG (human) = RNF2-FLAG (human) (UniProt Q99496)

Amino acid sequences for entries named in this document (tags omitted).
UniProt Q13547: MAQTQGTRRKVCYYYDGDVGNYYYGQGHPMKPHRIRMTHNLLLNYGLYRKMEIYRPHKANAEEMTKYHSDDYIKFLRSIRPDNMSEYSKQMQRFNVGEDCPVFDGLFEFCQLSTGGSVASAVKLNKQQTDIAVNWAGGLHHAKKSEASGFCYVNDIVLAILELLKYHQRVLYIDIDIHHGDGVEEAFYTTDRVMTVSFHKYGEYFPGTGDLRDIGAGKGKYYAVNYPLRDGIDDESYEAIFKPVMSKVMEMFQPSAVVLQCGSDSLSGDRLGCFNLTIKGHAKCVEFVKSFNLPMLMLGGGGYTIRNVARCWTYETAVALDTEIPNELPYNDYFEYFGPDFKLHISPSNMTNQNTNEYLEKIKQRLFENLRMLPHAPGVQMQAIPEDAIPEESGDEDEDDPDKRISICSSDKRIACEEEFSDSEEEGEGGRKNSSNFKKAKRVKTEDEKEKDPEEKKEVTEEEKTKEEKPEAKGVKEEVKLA
UniProt Q99496: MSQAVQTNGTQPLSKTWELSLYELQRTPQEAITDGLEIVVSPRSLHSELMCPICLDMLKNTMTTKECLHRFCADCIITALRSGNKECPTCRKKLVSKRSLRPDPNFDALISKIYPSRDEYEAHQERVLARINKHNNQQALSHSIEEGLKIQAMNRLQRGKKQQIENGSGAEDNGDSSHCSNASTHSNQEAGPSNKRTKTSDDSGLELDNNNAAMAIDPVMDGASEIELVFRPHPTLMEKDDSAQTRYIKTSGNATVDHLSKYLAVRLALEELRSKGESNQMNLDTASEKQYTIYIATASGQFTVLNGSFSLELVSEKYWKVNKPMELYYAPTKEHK
UniProt Q06330: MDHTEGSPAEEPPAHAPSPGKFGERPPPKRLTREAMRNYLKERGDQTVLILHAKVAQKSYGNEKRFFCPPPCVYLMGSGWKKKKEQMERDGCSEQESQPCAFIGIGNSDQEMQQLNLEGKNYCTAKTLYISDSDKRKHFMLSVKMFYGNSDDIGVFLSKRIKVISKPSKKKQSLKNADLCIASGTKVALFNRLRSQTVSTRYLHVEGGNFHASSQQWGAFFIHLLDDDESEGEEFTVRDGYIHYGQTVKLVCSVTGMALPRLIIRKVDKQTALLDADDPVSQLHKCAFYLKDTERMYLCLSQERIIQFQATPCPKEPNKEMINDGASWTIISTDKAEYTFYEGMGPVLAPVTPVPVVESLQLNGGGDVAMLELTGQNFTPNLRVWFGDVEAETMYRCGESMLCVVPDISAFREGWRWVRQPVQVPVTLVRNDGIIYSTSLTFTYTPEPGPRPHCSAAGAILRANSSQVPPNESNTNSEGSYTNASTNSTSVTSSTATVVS
UniProt Q92585: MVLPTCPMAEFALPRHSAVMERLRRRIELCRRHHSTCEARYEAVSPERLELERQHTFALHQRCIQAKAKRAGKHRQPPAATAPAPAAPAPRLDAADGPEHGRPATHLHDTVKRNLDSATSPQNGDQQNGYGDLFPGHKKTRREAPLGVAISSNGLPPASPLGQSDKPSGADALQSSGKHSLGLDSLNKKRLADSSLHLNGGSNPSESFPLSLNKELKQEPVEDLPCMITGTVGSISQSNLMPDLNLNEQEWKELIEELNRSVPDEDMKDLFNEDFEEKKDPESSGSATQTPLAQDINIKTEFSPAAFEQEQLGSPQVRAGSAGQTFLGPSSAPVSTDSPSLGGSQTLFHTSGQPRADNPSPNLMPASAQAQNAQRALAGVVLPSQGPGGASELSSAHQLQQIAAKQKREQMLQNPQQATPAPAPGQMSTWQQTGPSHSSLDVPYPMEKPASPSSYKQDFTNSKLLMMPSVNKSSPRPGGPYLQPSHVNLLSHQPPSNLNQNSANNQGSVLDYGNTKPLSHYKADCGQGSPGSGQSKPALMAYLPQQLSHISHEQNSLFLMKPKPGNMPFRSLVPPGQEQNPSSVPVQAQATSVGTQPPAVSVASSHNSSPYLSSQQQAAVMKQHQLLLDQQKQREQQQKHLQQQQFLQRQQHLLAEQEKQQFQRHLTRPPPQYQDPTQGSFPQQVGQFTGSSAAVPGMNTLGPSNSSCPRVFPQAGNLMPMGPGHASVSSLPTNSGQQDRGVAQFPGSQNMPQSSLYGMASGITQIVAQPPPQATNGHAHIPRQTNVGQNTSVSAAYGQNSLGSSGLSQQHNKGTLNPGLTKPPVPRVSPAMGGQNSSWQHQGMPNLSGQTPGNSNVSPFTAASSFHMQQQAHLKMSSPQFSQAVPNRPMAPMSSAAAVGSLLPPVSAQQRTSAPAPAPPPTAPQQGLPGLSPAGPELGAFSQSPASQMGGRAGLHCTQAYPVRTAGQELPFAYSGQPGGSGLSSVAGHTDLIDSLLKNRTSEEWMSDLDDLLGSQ
UniProt Q14839: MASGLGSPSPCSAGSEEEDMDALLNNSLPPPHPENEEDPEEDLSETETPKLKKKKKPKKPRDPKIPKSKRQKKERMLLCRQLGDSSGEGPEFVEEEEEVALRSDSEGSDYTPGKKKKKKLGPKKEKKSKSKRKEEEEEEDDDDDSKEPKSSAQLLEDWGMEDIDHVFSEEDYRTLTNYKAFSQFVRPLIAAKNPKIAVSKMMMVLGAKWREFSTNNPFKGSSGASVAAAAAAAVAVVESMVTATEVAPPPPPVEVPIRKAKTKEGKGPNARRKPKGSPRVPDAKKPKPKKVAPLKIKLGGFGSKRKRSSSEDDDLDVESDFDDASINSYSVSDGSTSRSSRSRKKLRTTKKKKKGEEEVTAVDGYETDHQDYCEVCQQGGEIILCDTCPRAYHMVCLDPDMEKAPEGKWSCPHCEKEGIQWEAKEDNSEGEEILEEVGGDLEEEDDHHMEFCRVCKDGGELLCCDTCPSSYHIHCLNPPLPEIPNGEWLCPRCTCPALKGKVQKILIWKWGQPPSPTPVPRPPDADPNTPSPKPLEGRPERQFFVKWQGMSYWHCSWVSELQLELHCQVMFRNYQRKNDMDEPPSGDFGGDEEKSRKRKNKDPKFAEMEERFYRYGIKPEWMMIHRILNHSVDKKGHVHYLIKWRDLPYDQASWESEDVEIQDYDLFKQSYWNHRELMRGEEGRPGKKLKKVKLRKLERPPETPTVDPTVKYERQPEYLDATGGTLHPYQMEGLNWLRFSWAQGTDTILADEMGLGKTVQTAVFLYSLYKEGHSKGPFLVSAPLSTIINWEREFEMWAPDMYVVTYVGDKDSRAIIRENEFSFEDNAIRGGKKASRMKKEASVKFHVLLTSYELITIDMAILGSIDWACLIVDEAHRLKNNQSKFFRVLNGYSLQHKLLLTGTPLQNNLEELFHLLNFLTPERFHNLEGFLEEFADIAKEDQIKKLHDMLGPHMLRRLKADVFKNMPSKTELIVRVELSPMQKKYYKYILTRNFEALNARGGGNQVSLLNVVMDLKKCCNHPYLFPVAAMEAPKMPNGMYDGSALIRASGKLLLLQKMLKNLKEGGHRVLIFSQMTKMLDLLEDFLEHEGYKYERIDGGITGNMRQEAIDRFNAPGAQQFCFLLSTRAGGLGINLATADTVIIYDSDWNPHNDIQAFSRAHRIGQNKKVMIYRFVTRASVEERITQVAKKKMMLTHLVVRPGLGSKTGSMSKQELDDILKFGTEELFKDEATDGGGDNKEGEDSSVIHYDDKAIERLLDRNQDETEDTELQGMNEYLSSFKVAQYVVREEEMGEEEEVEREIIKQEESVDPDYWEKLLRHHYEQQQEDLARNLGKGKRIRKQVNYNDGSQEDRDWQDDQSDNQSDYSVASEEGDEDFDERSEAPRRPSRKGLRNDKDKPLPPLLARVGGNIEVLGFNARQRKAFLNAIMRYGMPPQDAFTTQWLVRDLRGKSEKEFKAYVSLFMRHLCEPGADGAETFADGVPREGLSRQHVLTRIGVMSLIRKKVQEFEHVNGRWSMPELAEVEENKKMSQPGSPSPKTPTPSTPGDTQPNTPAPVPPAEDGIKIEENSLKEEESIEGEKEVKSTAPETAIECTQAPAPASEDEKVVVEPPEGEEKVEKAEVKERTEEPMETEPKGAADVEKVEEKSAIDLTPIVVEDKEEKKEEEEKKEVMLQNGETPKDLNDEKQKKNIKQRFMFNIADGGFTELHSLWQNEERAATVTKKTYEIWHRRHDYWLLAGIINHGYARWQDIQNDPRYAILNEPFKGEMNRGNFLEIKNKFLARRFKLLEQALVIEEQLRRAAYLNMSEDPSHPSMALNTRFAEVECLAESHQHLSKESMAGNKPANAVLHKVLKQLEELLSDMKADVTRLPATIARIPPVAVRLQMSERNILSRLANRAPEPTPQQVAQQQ

Substance	binding (FLAG-HDAC1 (human) [1])	binding (FLAG-HDAC1 (human) [2])	binding (RNF2-FLAG (human))
CSL (RBP-Jκ/CBF-1) (from UniProt Q06330 1-500)	binds	binds	binds
MAML1 (from UniProt Q92585 1-1016)	binds	binds	binds
MI2β/CHD4 (from UniProt Q14839 1-1912)	–	binds	–

— doi:10.1101/513549
